Results reported in article PMC11545644.
These are yes or no findings as the source states them, for the method shown. Some binding calls cover weakened binding; strength is not graded here.

By UniProt entry, the sequences of proteins in these tests, tags left out. Residues count along the entry.
UniProt P11021, residues 19-654: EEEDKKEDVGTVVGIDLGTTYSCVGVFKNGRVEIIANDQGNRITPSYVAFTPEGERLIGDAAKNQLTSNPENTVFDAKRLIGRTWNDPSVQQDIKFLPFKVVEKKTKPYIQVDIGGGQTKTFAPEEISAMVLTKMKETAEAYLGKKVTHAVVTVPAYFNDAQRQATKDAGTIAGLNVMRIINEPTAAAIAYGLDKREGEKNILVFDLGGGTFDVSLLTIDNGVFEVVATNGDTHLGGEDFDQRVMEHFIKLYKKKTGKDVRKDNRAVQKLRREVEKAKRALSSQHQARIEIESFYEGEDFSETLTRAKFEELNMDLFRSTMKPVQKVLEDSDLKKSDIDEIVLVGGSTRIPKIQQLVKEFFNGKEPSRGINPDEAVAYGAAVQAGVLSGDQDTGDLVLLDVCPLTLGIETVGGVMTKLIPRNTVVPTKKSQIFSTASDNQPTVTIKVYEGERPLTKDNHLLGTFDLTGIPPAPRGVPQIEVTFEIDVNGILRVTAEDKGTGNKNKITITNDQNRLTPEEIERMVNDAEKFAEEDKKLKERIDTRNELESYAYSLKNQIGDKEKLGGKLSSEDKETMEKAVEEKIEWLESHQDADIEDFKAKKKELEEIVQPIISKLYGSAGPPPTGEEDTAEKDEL
UniProt P36896, residues 24-126: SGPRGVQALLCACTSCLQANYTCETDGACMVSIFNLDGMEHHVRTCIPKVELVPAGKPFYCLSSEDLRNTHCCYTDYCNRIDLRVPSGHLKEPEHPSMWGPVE
UniProt P51864: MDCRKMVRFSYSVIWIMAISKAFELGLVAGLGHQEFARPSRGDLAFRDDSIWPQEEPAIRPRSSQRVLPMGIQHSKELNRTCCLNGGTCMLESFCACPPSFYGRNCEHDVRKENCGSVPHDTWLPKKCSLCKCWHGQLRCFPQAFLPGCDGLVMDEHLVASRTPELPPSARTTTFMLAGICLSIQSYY
UniProt P13385, residues 31-150: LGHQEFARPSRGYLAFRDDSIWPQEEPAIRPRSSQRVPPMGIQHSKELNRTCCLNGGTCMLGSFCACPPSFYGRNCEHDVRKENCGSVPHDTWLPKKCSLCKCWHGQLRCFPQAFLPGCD

Columns and labels:
Assay in all cases: ELISA; Nodal, GRP78 or Alk4 passively adsorbed to 96-well plates at 50 ng/50 uL/well overnight at 4 C, blocked with HFBTS; hCR1 or hCR3 added at 50 ng/50 uL/well alone or mixed in equal concentrations, 30 min at RT; bound hCR1 or hCR3 detected with NCI 5G1-1 or NCI 5G11-2 MoAb and anti-mouse IgG-HRP, OD 450 nm; both purified
[1] = biological target: recombinant human GRP78 (human) (UniProt P11021)
[2] = biological target: recombinant human Alk4 (human) (UniProt P36896)
[3] = biological target: T1, recombinant human NODAL (human) (UniProt Q96S42)
T1 sequence: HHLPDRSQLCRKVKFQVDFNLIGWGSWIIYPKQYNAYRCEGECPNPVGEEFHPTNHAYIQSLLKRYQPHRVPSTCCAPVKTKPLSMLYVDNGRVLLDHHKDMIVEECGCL

Measured: binding

recombinant human Cripto-3 (MyBioSource hCR3) (from UniProt P51864 1-188)
binds: [1] | [2] | [3]

recombinant human Cripto-1 (GenScript hCR1) (from UniProt P13385 31-150)
binds: [1] | [2] | [3]
